Laboratory results published in the supplement of paper PMC6411743.
± gives the standard deviation of the averaged measurements. Some of the results follow.

Amino acid sequences for entries named in this document (tags omitted). A change or cut given only in a name is not applied to a line headed by its entry.
UniProt Q9GZZ9, whole entry: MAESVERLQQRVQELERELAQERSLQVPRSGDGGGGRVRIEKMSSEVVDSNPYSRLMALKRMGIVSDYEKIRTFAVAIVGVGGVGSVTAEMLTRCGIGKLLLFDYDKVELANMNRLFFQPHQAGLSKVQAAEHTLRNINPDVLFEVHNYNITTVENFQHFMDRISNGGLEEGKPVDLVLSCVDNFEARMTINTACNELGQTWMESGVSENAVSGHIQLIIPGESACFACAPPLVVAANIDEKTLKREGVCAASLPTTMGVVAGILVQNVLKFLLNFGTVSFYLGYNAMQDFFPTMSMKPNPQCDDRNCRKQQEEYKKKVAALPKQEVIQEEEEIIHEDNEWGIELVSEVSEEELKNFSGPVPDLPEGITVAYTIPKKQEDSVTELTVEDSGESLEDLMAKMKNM
UniProt Q9H8V3: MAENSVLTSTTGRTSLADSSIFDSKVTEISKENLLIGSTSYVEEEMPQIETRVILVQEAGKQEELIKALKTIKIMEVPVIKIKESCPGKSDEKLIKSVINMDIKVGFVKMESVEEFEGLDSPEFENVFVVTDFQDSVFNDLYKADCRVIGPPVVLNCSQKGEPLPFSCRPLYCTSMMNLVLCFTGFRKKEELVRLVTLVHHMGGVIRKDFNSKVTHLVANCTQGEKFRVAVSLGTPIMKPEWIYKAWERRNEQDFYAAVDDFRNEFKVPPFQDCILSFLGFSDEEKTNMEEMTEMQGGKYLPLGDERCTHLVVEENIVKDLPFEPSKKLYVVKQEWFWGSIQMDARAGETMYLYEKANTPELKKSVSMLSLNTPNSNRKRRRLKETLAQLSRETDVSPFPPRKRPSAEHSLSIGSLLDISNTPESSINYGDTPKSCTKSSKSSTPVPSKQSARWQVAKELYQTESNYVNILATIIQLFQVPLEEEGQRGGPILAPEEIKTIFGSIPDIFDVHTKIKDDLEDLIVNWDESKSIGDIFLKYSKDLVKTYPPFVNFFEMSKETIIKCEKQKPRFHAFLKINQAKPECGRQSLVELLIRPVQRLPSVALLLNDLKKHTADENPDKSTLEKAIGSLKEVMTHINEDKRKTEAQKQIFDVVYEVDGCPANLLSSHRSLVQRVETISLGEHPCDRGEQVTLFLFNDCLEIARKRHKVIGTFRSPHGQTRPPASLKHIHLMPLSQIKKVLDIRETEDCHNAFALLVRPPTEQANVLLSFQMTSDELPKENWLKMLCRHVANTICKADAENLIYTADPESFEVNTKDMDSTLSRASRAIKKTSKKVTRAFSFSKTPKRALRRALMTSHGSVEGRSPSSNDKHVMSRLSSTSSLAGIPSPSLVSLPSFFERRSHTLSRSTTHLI
UniProt Q9BZI7: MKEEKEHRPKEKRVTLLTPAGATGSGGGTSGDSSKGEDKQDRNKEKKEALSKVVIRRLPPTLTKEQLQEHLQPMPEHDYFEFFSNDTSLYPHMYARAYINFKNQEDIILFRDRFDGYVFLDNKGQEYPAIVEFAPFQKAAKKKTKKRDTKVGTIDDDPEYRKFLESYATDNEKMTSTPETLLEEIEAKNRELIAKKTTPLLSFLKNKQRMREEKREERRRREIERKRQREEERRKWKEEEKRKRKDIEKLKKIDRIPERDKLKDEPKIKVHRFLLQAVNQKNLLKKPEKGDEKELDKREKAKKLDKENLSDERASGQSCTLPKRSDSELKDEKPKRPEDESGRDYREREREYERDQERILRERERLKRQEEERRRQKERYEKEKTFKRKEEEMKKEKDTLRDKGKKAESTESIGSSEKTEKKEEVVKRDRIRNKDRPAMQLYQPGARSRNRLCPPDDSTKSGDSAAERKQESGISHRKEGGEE
UniProt Q9H061: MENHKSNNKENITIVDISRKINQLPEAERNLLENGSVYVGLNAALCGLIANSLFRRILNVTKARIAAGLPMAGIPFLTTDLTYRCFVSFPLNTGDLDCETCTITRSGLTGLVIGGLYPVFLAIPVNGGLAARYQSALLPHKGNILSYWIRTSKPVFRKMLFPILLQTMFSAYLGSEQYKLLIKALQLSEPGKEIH
UniProt Q9NSK0: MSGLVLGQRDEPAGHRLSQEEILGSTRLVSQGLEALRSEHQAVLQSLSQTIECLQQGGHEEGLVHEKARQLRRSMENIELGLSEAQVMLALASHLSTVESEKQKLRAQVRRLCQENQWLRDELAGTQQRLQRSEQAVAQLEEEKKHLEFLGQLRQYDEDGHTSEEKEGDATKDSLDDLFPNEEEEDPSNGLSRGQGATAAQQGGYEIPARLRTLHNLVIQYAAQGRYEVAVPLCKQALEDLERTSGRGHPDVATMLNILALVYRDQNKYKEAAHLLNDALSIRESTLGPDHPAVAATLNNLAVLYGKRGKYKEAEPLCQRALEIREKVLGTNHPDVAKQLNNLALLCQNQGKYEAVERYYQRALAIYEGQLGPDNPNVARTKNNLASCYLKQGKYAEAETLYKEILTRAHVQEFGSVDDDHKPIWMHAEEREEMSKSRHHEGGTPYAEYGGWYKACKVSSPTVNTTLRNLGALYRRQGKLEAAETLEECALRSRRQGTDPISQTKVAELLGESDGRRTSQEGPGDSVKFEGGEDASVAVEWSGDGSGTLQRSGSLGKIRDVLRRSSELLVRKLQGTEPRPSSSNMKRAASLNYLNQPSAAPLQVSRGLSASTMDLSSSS
UniProt Q9GZS1, whole entry: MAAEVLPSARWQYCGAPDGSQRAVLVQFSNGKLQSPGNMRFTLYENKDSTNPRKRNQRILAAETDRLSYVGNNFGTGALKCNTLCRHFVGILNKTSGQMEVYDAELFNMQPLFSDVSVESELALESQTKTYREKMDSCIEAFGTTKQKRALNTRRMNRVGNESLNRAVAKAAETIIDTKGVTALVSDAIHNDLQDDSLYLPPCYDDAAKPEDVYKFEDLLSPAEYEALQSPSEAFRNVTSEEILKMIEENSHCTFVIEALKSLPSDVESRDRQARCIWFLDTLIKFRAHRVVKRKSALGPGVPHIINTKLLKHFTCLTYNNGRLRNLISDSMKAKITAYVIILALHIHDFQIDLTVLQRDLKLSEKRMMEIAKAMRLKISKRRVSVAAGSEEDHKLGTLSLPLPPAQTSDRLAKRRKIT
UniProt Q9H840: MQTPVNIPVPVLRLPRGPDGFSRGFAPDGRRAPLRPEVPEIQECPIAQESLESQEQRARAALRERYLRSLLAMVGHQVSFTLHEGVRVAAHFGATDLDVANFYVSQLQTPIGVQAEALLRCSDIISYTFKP
UniProt Q9NR12, whole entry: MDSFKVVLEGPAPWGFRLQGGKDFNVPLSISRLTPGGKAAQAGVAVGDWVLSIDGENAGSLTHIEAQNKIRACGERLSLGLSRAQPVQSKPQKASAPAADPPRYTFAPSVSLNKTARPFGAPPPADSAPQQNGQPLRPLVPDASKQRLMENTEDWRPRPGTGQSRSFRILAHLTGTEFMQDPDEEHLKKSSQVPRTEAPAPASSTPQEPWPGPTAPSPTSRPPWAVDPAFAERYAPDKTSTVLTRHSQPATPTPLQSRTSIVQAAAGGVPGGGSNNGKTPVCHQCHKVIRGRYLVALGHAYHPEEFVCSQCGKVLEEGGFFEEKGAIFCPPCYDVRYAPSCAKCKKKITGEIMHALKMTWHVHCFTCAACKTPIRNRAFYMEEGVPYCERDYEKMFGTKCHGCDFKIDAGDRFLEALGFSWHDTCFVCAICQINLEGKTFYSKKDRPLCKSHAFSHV
UniProt Q9H1E3: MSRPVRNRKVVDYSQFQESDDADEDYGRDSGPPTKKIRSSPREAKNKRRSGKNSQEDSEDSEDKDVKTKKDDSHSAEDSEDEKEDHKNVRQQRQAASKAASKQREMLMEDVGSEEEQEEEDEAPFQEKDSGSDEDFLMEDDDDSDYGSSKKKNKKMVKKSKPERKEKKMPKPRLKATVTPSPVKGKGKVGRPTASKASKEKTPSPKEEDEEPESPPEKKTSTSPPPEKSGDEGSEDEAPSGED
UniProt Q9H0F7: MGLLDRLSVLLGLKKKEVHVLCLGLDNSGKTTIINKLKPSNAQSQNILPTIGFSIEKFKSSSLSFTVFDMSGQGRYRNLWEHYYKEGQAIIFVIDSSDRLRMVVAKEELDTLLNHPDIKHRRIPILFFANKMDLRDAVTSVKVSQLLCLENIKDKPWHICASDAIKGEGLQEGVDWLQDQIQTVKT
UniProt Q9HAV4: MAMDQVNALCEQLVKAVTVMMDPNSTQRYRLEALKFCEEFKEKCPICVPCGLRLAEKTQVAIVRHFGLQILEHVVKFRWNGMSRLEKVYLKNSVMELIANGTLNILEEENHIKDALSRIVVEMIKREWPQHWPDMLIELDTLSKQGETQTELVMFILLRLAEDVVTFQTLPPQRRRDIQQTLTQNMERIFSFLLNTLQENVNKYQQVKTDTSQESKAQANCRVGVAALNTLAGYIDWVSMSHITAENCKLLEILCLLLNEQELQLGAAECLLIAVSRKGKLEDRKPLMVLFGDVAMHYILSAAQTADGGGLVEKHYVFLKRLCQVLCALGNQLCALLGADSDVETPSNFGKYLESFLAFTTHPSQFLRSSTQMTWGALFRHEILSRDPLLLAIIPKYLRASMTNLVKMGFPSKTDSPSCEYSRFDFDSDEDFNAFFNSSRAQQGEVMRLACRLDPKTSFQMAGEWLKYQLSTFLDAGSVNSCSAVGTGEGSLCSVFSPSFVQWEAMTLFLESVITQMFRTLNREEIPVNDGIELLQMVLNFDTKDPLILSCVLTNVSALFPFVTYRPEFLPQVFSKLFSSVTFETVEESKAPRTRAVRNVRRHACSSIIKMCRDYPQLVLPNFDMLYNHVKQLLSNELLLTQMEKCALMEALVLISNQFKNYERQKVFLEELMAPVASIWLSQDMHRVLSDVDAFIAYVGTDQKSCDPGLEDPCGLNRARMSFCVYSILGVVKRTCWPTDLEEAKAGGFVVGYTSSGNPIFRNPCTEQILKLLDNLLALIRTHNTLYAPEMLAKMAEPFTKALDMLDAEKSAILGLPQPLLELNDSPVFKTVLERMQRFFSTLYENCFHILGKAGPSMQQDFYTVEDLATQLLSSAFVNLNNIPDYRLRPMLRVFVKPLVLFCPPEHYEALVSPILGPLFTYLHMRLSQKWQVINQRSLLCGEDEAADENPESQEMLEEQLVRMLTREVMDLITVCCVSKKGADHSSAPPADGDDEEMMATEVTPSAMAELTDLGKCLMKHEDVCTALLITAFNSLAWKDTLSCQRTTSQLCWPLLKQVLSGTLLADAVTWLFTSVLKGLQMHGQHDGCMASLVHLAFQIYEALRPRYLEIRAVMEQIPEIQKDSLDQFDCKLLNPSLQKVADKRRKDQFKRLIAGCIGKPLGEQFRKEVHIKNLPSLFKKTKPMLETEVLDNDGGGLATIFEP
UniProt Q9H2G2: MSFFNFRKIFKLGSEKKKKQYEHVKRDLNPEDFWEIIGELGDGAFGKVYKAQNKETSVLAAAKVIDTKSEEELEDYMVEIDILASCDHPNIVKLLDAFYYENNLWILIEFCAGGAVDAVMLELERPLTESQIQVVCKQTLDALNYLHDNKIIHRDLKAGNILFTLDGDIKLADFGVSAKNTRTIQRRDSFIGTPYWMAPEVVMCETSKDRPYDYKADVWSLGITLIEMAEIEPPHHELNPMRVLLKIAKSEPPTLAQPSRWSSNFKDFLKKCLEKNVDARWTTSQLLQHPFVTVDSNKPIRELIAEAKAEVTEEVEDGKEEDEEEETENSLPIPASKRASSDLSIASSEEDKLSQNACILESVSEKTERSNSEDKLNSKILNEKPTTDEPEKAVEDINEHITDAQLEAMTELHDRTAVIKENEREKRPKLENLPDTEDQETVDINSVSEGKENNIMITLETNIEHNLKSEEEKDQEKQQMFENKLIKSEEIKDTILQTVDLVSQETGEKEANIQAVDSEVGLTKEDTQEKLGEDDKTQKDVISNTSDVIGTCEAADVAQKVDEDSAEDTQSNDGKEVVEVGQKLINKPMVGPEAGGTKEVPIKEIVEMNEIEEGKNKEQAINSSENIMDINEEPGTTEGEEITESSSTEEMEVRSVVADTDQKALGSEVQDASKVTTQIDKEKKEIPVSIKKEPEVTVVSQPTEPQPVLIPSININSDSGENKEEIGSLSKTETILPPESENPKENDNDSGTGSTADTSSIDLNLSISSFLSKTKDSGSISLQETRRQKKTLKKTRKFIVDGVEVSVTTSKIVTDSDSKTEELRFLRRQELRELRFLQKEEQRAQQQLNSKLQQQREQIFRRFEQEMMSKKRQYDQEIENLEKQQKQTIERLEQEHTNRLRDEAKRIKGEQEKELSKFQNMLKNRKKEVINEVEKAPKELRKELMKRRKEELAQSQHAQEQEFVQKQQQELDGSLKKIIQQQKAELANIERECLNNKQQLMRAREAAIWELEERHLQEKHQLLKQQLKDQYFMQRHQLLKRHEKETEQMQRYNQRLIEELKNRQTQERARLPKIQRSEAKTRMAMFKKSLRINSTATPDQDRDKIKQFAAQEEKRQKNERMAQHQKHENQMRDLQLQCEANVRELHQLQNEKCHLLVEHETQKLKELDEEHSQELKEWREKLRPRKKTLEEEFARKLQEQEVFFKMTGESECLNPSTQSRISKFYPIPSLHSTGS
UniProt Q9NPA8: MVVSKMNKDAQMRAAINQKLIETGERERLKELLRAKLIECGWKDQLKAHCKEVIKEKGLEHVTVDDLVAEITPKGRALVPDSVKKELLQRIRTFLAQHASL

Compound: Nc1nc2c(ncn2[C@@H]2O[C@H](COP(=O)(O)OP(=O)(O)OP(=O)(O)O)[C@@H](O)[C@H]2O)c(=O)[nH]1 [guanosine triphosphate]
Test: NP40-soluble protein abundance relative to vehicle (solubility fold change) (ratio); higher = more soluble protein in presence of GTP
Procedure, shortened: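 Data come from three independent experiments in which Dounce-homogenised Jurkat crude lysate was treated at eight concentrations from 0.1 to 10 mM. Treatment ran 10 min at room temperature and then 3 min at 37 °C, after which 0.8% NP40 and benzonase were added for 60 min at 4 °C before ultracentrifugation. The supernatant underwent TMT labelling and LC-MS/MS, and vsn-normalised intensities were expressed as fold change against the detergent-processed vehicle in each replicate.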

Target | NP40-soluble protein abundance (concentration: 0.1mM) | NP40-soluble protein abundance (concentration: 0.5mM) | NP40-soluble protein abundance (concentration: 1mM) | NP40-soluble protein abundance (concentration: 2mM) | NP40-soluble protein abundance (concentration: 4mM) | NP40-soluble protein abundance (concentration: 6mM) | NP40-soluble protein abundance (concentration: 8mM) | NP40-soluble protein abundance (concentration: 10mM)
PLEKHA1 (UniProt Q9HB21) | 1.02 ± 0.021 | 1.02 ± 0.033 | 0.946 ± 0.024 | 0.976 ± 0.045 | 0.942 ± 0.022 | 0.971 ± 0.011 | 0.923 ± 0.036 | 0.916 ± 0.076
UniProt Q9BZQ6 and related entries | 0.984 ± 0.026 | 1 ± 0.022 | 0.976 ± 0.047 | 0.942 ± 0.06 | 0.949 ± 0.049 | 0.953 ± 0.044 | 0.939 ± 0.032 | 0.921 ± 0.011
UBA5 (UniProt Q9GZZ9) | 1 ± 0.018 | 0.967 ± 0.042 | 0.892 ± 0.039 | 0.903 ± 0.037 | 0.88 ± 0.038 | 0.857 ± 0.038 | 0.848 ± 0.068 | 0.837 ± 0.072
UniProt Q9H8V3 and related entries | 1.14 ± 0.067 | 1.06 ± 0.042 | 1.12 ± 0.052 | 1.08 ± 0.069 | 1.11 ± 0.051 | 1.14 ± 0.048 | 1.14 ± 0.057 | 1.1 ± 0.059
UniProt Q9HCJ3 and related entries | 0.998 ± 0.096 | 1.06 ± 0.05 | 0.997 ± 0.074 | 1.01 ± 0.12 | 0.982 ± 0.05 | 0.999 ± 0.086 | 0.966 ± 0.062 | 1 ± 0.11
NIT2 (UniProt Q9NQR4) | 0.947 ± 0.04 | 0.958 ± 0.039 | 0.891 ± 0.041 | 0.867 ± 0.036 | 0.856 ± 0.051 | 0.856 ± 0.046 | 0.848 ± 0.055 | 0.853 ± 0.059
UniProt Q9BZI7 and related entries | 0.934 ± 0.096 | 0.955 ± 0.082 | 0.994 ± 0.11 | 0.988 ± 0.11 | 0.993 ± 0.1 | 1.01 ± 0.096 | 1.04 ± 0.12 | 1.07 ± 0.098
TAOK3 (UniProt Q9H2K8) | 0.977 ± 0.11 | 0.981 ± 0.1 | 0.917 ± 0.099 | 0.92 ± 0.052 | 0.924 ± 0.081 | 0.907 ± 0.061 | 0.926 ± 0.11 | 0.863 ± 0.087
UniProt Q9HCJ0 and related entries | 1.09 ± 0.051 | 1.06 ± 0.044 | 1.01 ± 0.12 | 1.05 ± 0.032 | 0.972 ± 0.081 | 1.03 ± 0.077 | 1.05 ± 0.023 | 1.07 ± 0.037
TMEM126A (UniProt Q9H061) | 1.06 ± 0.1 | 1.01 ± 0.11 | 0.978 ± 0.088 | 1.04 ± 0.11 | 0.941 ± 0.03 | 0.943 ± 0.1 | 0.897 ± 0.016 | 0.907 ± 0.041
SLC25A19 (UniProt Q9HC21) | 1.09 ± 0.1 | 1.08 ± 0.11 | 1.01 ± 0.058 | 1.07 ± 0.12 | 1.13 ± 0.16 | 1.06 ± 0.17 | 1.04 ± 0.079 | 1.03 ± 0.11
UniProt Q9NSK0 and related entries | 0.943 ± 0.071 | 0.945 ± 0.085 | 0.973 ± 0.084 | 0.949 ± 0.1 | 0.94 ± 0.086 | 0.948 ± 0.068 | 0.963 ± 0.089 | 0.949 ± 0.078
UniProt Q9H300 and related entries | 0.944 ± 0.046 | 0.996 ± 0.034 | 0.903 ± 0.061 | 0.955 ± 0.016 | 0.921 ± 0.067 | 0.982 ± 0.072 | 0.98 ± 0.069 | 1.02 ± 0.079
UniProt Q9GZS1-2 | 1.04 ± 0.041 | 1.04 ± 0.023 | 1.06 ± 0.053 | 1.08 ± 0.024 | 1.13 ± 0.026 | 1.17 ± 0.026 | 1.18 ± 0.047 | 1.18 ± 0.026
GEMIN7 (UniProt Q9H840) | 1.02 ± 0.074 | 1.08 ± 0.18 | 1.11 ± 0.11 | 1.18 ± 0.032 | 1.21 ± 0.084 | 1.2 ± 0.1 | 1.31 ± 0.23 | 1.31 ± 0.13
UniProt Q9H9G7 and related entries | 0.935 ± 0.067 | 1.01 ± 0.015 | 1.08 ± 0.2 | 0.957 ± 0.08 | 1.02 ± 0.061 | 1.06 ± 0.095 | 1.06 ± 0.084 | 1.062 ± 0.0073

Retrieved one by one from above, two records:
Target | NP40-soluble protein abundance (concentration: 0.1mM) | NP40-soluble protein abundance (concentration: 0.5mM) | NP40-soluble protein abundance (concentration: 1mM) | NP40-soluble protein abundance (concentration: 2mM) | NP40-soluble protein abundance (concentration: 4mM) | NP40-soluble protein abundance (concentration: 6mM) | NP40-soluble protein abundance (concentration: 8mM) | NP40-soluble protein abundance (concentration: 10mM)
UniProt Q9NSK0 and related entries | 0.943 ± 0.071 | 0.945 ± 0.085 | 0.973 ± 0.084 | 0.949 ± 0.1 | 0.94 ± 0.086 | 0.948 ± 0.068 | 0.963 ± 0.089 | 0.949 ± 0.078
UniProt Q9H8V3 and related entries | 1.14 ± 0.067 | 1.06 ± 0.042 | 1.12 ± 0.052 | 1.08 ± 0.069 | 1.11 ± 0.051 | 1.14 ± 0.048 | 1.14 ± 0.057 | 1.1 ± 0.059

Following part

Target | NP40-soluble protein abundance (concentration: 0.1mM) | NP40-soluble protein abundance (concentration: 0.5mM) | NP40-soluble protein abundance (concentration: 1mM) | NP40-soluble protein abundance (concentration: 2mM) | NP40-soluble protein abundance (concentration: 4mM) | NP40-soluble protein abundance (concentration: 6mM) | NP40-soluble protein abundance (concentration: 8mM) | NP40-soluble protein abundance (concentration: 10mM)
PDLIM7 (UniProt Q9NR12) | 0.921 ± 0.038 | 0.937 ± 0.052 | 0.894 ± 0.067 | 0.91 ± 0.085 | 0.882 ± 0.041 | 0.894 ± 0.046 | 0.913 ± 0.05 | 0.915 ± 0.036
PCIF1 (UniProt Q9H4Z3) | 0.97 ± 0.035 | 0.998 ± 0.018 | 0.952 ± 0.063 | 0.92 ± 0.067 | 0.918 ± 0.065 | 0.948 ± 0.072 | 0.902 ± 0.097 | 0.882 ± 0.068
SCPEP1 (UniProt Q9HB40) | 0.885 ± 0.027 | 0.846 ± 0.056 | 0.965 ± 0.029 | 0.941 ± 0.051 | 0.937 ± 0.054 | 0.932 ± 0.06 | 0.873 ± 0.054 | 0.912 ± 0.081
VPS16 (UniProt Q9H269) | 1.09 ± 0.077 | 1.09 ± 0.12 | 1.09 ± 0.043 | 1.06 ± 0.054 | 1.07 ± 0.049 | 1.01 ± 0.022 | 1.08 ± 0.063 | 0.98 ± 0.041
NUCKS1 (UniProt Q9H1E3) | 0.807 ± 0.074 | 0.811 ± 0.022 | 0.996 ± 0.14 | 0.841 ± 0.063 | 0.747 ± 0.077 | 0.763 ± 0.072 | 0.758 ± 0.098 | 0.812 ± 0.094
UniProt Q9H019 and related entries | 0.943 ± 0.079 | 0.915 ± 0.11 | 0.944 ± 0.13 | 0.902 ± 0.12 | 0.924 ± 0.09 | 0.903 ± 0.08 | 0.91 ± 0.099 | 0.927 ± 0.088
UniProt Q9H8G2 | 0.952 ± 0.098 | 0.944 ± 0.046 | 1.09 ± 0.13 | 1.1 ± 0.13 | 1.09 ± 0.088 | 1.15 ± 0.078 | 1.14 ± 0.052 | 1.25 ± 0.059
UniProt Q9H1P3 and related entries | 0.93345 ± 0.00088 | 0.909 ± 0.03 | 0.8815 ± 0.0072 | 0.851 ± 0.055 | 0.926 ± 0.095 | 0.885 ± 0.017 | 0.932 ± 0.061 | 0.898 ± 0.035
UniProt Q9NQW7-3 | 0.998 ± 0.018 | 1.01 ± 0.022 | 0.936 ± 0.015 | 0.925 ± 0.019 | 0.924 ± 0.026 | 0.92 ± 0.021 | 0.909 ± 0.034 | 0.877 ± 0.047
UniProt Q9H0F7 and related entries | 1.02 ± 0.063 | 1.03 ± 0.1 | 0.914 ± 0.011 | 0.986 ± 0.12 | 0.932 ± 0.065 | 0.904 ± 0.032 | 0.864 ± 0.061 | 0.882 ± 0.065
XPO5 (UniProt Q9HAV4) | 1.02 ± 0.048 | 1.01 ± 0.039 | 0.951 ± 0.037 | 0.955 ± 0.058 | 0.925 ± 0.06 | 0.931 ± 0.057 | 0.902 ± 0.056 | 0.882 ± 0.068
UniProt Q9H2G2 and related entries | 0.944 ± 0.073 | 0.944 ± 0.069 | 0.924 ± 0.065 | 0.893 ± 0.081 | 0.887 ± 0.083 | 0.897 ± 0.088 | 0.925 ± 0.064 | 0.901 ± 0.073
UniProt Q9NP50 and related entries | 1.09 ± 0.069 | 1.13 ± 0.028 | 1.14 ± 0.061 | 1.1 ± 0.04 | 1.09 ± 0.12 | 1.08 ± 0.075 | 1.12 ± 0.13 | 1.12 ± 0.11
UniProt Q9NPA8 and related entries | 0.933 ± 0.06 | 0.951 ± 0.11 | 1.05 ± 0.095 | 0.947 ± 0.14 | 0.901 ± 0.13 | 0.936 ± 0.17 | 0.861 ± 0.1 | 0.892 ± 0.083
UniProt Q9NTJ3 and related entries | 0.971 ± 0.03 | 1.01 ± 0.018 | 0.993 ± 0.024 | 0.977 ± 0.036 | 0.984 ± 0.045 | 1.01 ± 0.038 | 1.02 ± 0.098 | 0.986 ± 0.052
